Results on 1 sequence are retold here after patent US20030100114.

One data set concerns the target T1, c-Maf (full-length) (UniProt P54843).
T1 sequence (looked up): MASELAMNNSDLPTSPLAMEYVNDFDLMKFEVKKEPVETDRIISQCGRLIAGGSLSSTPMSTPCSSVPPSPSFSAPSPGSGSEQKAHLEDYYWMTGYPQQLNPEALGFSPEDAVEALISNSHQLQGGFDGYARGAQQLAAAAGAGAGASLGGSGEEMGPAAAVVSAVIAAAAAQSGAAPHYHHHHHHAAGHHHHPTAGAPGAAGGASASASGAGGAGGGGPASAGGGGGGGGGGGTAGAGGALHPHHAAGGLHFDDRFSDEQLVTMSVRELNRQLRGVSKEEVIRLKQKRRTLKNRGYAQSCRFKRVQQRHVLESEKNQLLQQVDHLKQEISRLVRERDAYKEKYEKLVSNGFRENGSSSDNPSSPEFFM
Description: activity in cells. The settings on record: IL-4 promoter CAT reporter transactivation in M12 cells; protein in cells; protein details: pMEX-Maf expression in M12 cells; only the site is given.

Data set [1] has as its target T2, NF-ATp (Rel domain) (Mus musculus) (UniProt Q60591).
T2 sequence (looked up, limits assumed): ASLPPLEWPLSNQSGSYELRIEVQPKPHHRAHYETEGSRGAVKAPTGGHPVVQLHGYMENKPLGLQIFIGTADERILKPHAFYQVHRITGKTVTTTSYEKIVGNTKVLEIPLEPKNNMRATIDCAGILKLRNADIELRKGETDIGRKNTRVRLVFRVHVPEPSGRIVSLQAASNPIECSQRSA
Put plainly: EMSA. The settings on record: protein translated in vitro; protein details: rabbit reticulocyte lysate TnT; label: 32P. (In EMSA bound probe runs differently from free probe, usually more slowly.)

Where a protein sequence is shown, tags need not be part of it.

In the case of “CTCATTTTCCCTTGGTTTCAGCAACTTTAACTC (double strand) [IL-4 promoter -59 to -27 wild type]”, in the data set with c-Maf (full-length), the “activity on this sequence” value is on record as “active”. For the same sequence, the binding result in data set [1] is listed as “binds”.
